Test results as given in patent publication US20180320217A1, “METHODS FOR SAMPLING AND MEASURING ORAL LAVAGE PROTEINS” (The Procter & Gamble Company, priority 2017, published 2018).

Test system: proteins in oral lavage
Assay: Abundance of proteins in human oral lavage (SomaLogic), TABLE 1
Format: in vivo
Conditions: for Means (Original Scale) High bleeder BL / Means (Original Scale) High bleeder W4 / Means (Original Scale) Low bleeder BL: abundance in oral lavage; for Means (Original Scale) High bleeder BL: high bleeders (gingivitis); for Means (Original Scale) High bleeder BL / Means (Original Scale) Low bleeder BL: baseline; for Means (Original Scale) High bleeder W4 / Fold Change High bleeder W4 vs High bleeder BL: high bleeders; for Means (Original Scale) High bleeder W4: week 4 of investigative products; for Means (Original Scale) Low bleeder BL: low bleeders (healthy); for Fold Change High bleeder BL vs Low bleeder BL / Fold Change High bleeder W4 vs High bleeder BL: oral lavage
[1] = high bleeders vs low bleeders at baseline
[2] = week 4 of investigative products vs baseline
[3] = week 4 of treatment vs baseline
[4] = high vs low bleeders at baseline

| Substance | Means (Original Scale) High bleeder BL | Means (Original Scale) High bleeder W4 | Means (Original Scale) Low bleeder BL | Fold Change High bleeder BL vs Low bleeder BL [1] | Fold Change High bleeder W4 vs High bleeder BL [2] | Fold Change High bleeder W4 vs High bleeder BL [3] | Fold Change High bleeder BL vs Low bleeder BL [4] |
| --- | --- | --- | --- | --- | --- | --- | --- |
| Integrin alpha-I: beta-1 complex | 11211 | 6351 | 948 | 6.43 | 0.58 | – | – |
| Epiregulin | 923 | 545 | 365 | 2.08 | 0.68 | – | – |
| 14-3-3 protein theta | 5344 | 2603 | 838 | 5.73 | 0.57 | – | – |
| Interferon gamma | 658 | 263 | 87 | 5.99 | 0.53 | – | – |
| Signal transducer and activator of transcription 3 | 5042 | 2798 | 554 | – | – | 0.60 | 9.28 |
| Alpha-1-antitrypsin | 3598 | 1784 | 1399 | 2.26 | 0.62 | – | – |
| Interleukin-1 beta | 397 | 228 | 152 | 2.54 | 0.60 | – | – |
| Alpha-enolase | 217066 | 170325 | 110398 | 2.28 | 0.76 | – | – |
| Galectin-10 | 349 | 146 | 75 | 3.52 | 0.49 | – | – |
| Triosephosphate isomerase | 199036 | 137411 | 13987 | – | – | 0.63 | 15.87 |
| Plasma kallikrein | 46557 | 15193 | 4040 | – | – | 0.73 | 9.09 |
| Parathyroid hormone-related protein | 102 | 74 | 45 | – | – | 0.76 | 2.19 |
| High affinity nerve growth factor receptor | 919 | 590 | 428 | 2.06 | 0.67 | – | – |
| 26S proteasome non-ATPase regulatory subunit 7 | 368 | 252 | 80 | 3.81 | 0.74 | – | – |
| Vitamin K-dependent protein S | 26044 | 11517 | 3768 | – | – | 0.49 | 5.90 |
| N-acetyl-D-glucosamine kinase | 2839 | 1570 | 283 | 12.44 | 0.48 | – | – |
| Tenascin | 11450 | 4204 | 1484 | – | – | 0.59 | 6.06 |
| Neurogenic locus notch homolog protein 3 | 12232 | 5959 | 2264 | 4.76 | 0.54 | – | – |
| Glyceraldehyde-3-phosphate dehydrogenase | 106769 | 85859 | 12144 | 14.20 | 0.44 | – | – |
| Platelet receptor Gi24 | 7220 | 4528 | 2622 | – | – | 0.62 | 2.74 |

| Substance | Means (Original Scale) High bleeder BL | Means (Original Scale) High bleeder W4 | Means (Original Scale) Low bleeder BL | Fold Change High bleeder BL vs Low bleeder BL [1] | Fold Change High bleeder W4 vs High bleeder BL [2] | Fold Change High bleeder W4 vs High bleeder BL [3] | Fold Change High bleeder BL vs Low bleeder BL [4] |
| --- | --- | --- | --- | --- | --- | --- | --- |
| Drebrin-like protein | 2088 | 1305 | 809 | 2.37 | 0.67 | – | – |
| Heat shock protein HSP 90-beta | 114383 | 53401 | 13991 | 11.49 | 0.61 | – | – |
| Epidermal growth factor | 40558 | 18414 | 4786 | 18.15 | 0.55 | – | – |
| Proteasome subunit alpha type-6 | 392 | 224 | 139 | – | – | 0.65 | 2.77 |
| Growth/differentiation factor 5 | 511 | 423 | 260 | 1.89 | 0.80 | – | – |
| Antithrombin-III | 7388 | 2485 | 1424 | 5.80 | 0.95 | – | – |
| Mitogen-activated protein kinase 3 | 2149 | 953 | 305 | 6.58 | 0.62 | – | – |
| Amyloid beta A4 protein | 128850 | 81350 | 51294 | 2.42 | 0.68 | – | – |
| Platelet factor 4 | 405 | 200 | 131 | – | – | 0.61 | 2.33 |
| ATP synthase subunit beta, mitochondrial | 526 | 265 | 162 | 2.70 | 0.58 | – | – |
| Serum amyloid P-component | 83820 | 38594 | 17509 | – | – | 0.54 | 6.00 |
| Vitronectin | 1831 | 1169 | 648 | – | – | 0.70 | 2.55 |
| Parathyroid hormone | 97 | 58 | 32 | – | – | 0.67 | 2.54 |
| Latent-transforming growth factor beta-binding protein 4 | 3512 | 1923 | 770 | 4.42 | 0.57 | – | – |
| Granulocyte-macrophage colony-stimulating factor | 3974 | 2161 | 1747 | 2.41 | 0.61 | – | – |
| Insulin-like growth factor-binding protein 5 | 36296 | 21609 | 13120 | 2.49 | 0.65 | – | – |
| Ubiquitin carboxyl-terminal hydrolase isozyme L1 | 8790 | 4911 | 2687 | – | – | 0.62 | 3.47 |
| Interleukin-1 alpha | 1989 | 1071 | 1194 | 1.86 | 0.51 | – | – |
| Complement component C9 | 76942 | 31536 | 7900 | 18.85 | 0.73 | – | – |
